In patent US20050090529A1, “3,5 Disubstituted indazole compounds with nitrogen-bearing 5-membered heterocycles, pharmaceutical compositions, and methods for mediating or inhibiting cell proliferation” (PFIZER INC, priority 2003, published 2005):
For at least one compound, name, drawing or mass did not settle the structure.

Test system: Cyclin-dependent kinase
Assay: Cyclin-dependent kinase inhibition, % inhibition at 10 nM (library Examples 99-270)
Type: biochemical
Details: 10 nM compound
Description: Cyclin-dependent kinase activity was measured by quantifying the enzyme-catalyzed, time-dependent incorporation of radioactive phosphate from [^32P]ATP or [^33P]ATP into a protein substrate. Unless noted otherwise, assays were performed in 96-well plates in a total volume of 50 μL, in the presence of 10 mM HEPES (N-[2-hydroxyethyl]piperazine-N′-[2-ethanesulfonic acid]) (pH 7.4), 10 mM MgCl2, 25 μM adenosine triphosphate (ATP), 1 mg/mL ovalbumin, 5 μg/mL leupeptin, 1 mM dithiothreitol, 10 mM beta-glycerophosphate, 0.1 mM sodium vanadate, 1 mM sodium fluoride, 2.5 mM ethylene glycol-bis(β-aminoethyl ethKer)-N,N,N′N′-tetraacetic acid (EGTA), 2% (v/v) dimethylsulfoxide, and 0.03-0.4 μCi [^32/33P]ATP per reaction. Reactions were initiated with enzyme, incubated at 30° C., and terminated after 20 minutes by the addition of ethylenediaminetetraacetic acid (EDTA) to 250 mM. The phosphorylated substrate was then captured on a nitrocellulose or phosphocellulose membrane using a 96-well filtration manifold, and unincorporated radioactivity was removed by repeated washing with 0.85% phosphoric acid. Radioactivity was quantified by exposing the dried membranes to a phosphorimager.
Results of assays performed on compounds, which include the specific examples described above are provided in Examples 99-274 above, and in Table 1 below. Unless indicated otherwise in a particular entry, the units and assays used are as indicated in the applicable column of the table.

Row | SMILES | % Inhib @ 10 nM [%]
1 | CCNCc1cncc(-c2ccc3[nH]nc(-c4ncc(C(=O)N5CCN(Cc6ccc(Cl)cc6)CC5)[nH]4)c3c2)c1C [Example 168, ({5-[3-(5-{[4-(4-chlorobenzyl)piperazin-1-yl]carbonyl}-1H-imidazol-2-yl)-1H_ indazol-5-yl]-4-methylpyridin-3-yl}-methyl)ethylamine] | 71
2 | CCNCc1cncc(-c2ccc3[nH]nc(-c4ncc(C(=O)NCCc5c[nH]c6ccc(Cl)cc56)[nH]4)c3c2)c1C [Example 128, N-[2-(5-chloro-1H-indol-3-YL)methyl]2-(5-{5-[(ethylamino)methyl]-4-methylpyridin-3-yl}-1H-indazol-3-yl)-1H-imidazole-5-carboxamide] | 65
3 | CCNCc1cncc(-c2ccc3[nH]nc(-c4ncc(C(=O)N5CCN(c6ccccc6Cl)CC5)[nH]4)c3c2)c1C [Example 150, ({5-[3-(5-{[4-(2-chlorophenyl)piperazin-1-yl]carbonyl)-1H-imidazol-2-yl)-1H-indazol-5-yl]-4-methylpyridin-3-yl}methyl)ethylamine] | 79
